Results reported in patent US11905253B2, “Compounds and pharmaceutical compositions for reducing CD95-mediated cell motility” (INSTITUT NATIONAL DE LA SANTE ET DE LA RECHERCHE MEDICALE …, priority 2018, dated 2024).
For some of these results: At least one read-out could not be matched to a standard name with certainty. Some compounds share one wording; it may come from a single statement. Some of these results come from one statement about several compounds together. At least one compound was matched to its structure with a doubt left.

What was measured:
[1] = biological target: T1, CD95/PLCγ1 interaction (SH3-PLCg1/CID-CD95) (Homo sapiens, UniProt P19174); experiment: Renilla luciferase protein-fragment complementation assay (PCA), SH3-PLCγ1-F1 / CID-CD95-F2; type: cell-based
T1 construct: SH3—PLCγ1-F1 or DD-FADD-F1 (inset) was co-transfected into HEK293T cells; expressed in transfected cells; host or cells: HEK293T
T1 sequence (P19174 791-851): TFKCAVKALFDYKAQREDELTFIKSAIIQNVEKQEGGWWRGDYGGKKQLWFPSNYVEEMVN
Procedure: (§1) A. SH3—PLCγ1-F1 or DD-FADD-F1 (inset) was co-transfected into HEK293T cells along with whole CID-CD95-F2 or DD-CD95-F2 (inset). After 24 h, cells were exposed for 4 h to different compounds according to the invention at different concentrations and luminescence was assessed. The tested compounds were the compounds number 2, 3, 4, 5, 6, 7, 10, 11, 13 and 14.
(§2) F1 corresponds to the N-terminal domain of Renilla luciferase enzyme split into two fragments (F1 and F2, F2 being the C-terminal domain—see Stefan, E. et al. Proc Natl Acad Sci USA 104, 16916-21 (2007)). These F1 and F2 domains were co-expressed in HEK cells, whereupon the interaction between CD95-CID and PLCγ1, or CD95-DD and DD-FADD, allowed protein refolding and subsequent recovery of Renilla luciferase activity.
(§3) CID corresponds to amino acids 175 to 210 of CD95; DD corresponds to amino acids 210 to 303 of CD95.
(§4) Renilla luciferase-based protein-fragment complementation assay (PCA): HEK293T cells were electroporated with 10 μg DNA using a BTM-830 electroporation generator (BTX Instrument Division, Harvard Apparatus). Transfected cells were cultured for 24 h prior to PCA analyses as previously described (Poissonnier, A. et al., Immunity. 2016, 45, 209-223). Briefly, transfected cells (10^6) were washed and resuspended in 100 μL PBS and placed in OptiPlate-96 plates (Perkin-Elmer, Waltham, Mass., USA). Coelenterazine-h (5 μM, Sigma-Aldrich) was added to each well and Renilla luciferase activity was monitored for the first 10 seconds using Infinite200Pro (Tecan, Männedorf, Switzerland).

[2] = system: CD95/PLCγ1 interaction (SH3-PLCg1/CID-CD95); experiment: as above; type: cell-based, human; settings: comparison of the IC50 values of Table 1
Procedure: as §1, §2, §3, §4

[3] = biological target: T2, CD95/FADD interaction (DD-FADD/DD-CD95) (Homo sapiens, UniProt P25445+Q13158); experiment: Renilla luciferase protein-fragment complementation assay (PCA), DD-FADD-F1 / DD-CD95-F2; type: cell-based; settings: HEK cells, 4 h, luminescence; FIGS. 1A, 1B, 1C (inset)
T2 construct: DD corresponds to amino acids 210 to 303 of CD95; expressed in transfected cells; host or cells: HEK293T
T2 sequence (P25445 226-319 limits assumed): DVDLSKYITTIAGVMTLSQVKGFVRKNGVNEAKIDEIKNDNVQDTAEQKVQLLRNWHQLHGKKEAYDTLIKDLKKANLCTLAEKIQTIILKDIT
T2 sequence (Q13158 97-181 limits assumed): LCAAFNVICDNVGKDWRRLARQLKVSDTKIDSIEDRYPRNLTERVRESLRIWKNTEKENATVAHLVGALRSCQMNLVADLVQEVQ
Procedure: as §1, §2, §3, §4

## CC(O)C(N)C(=O)NCCN(C(=O)CCS)C(CCCNC(=N)N)C(=O)NCCN(C(=O)CCCCCN)C(Cc1cnc[nH]1)C(=O)NCCN(C(=O)CCCCNC(=N)N)C(CCCCN)C(N)=O (stereo not shown) [Compound 13]
[1]; HEK cells, 4 h, luminescence, FIGS. 1A, 1B, 1C
  disruption of the CD95/PLCγ1 interaction: disrupt the CD95/PLCγ1 interaction
[1]; comment on Table 1
  IC50 regarding the CD95/PLCγ1 interaction, in words: particularly low IC50 values
[2]
  specificity for the interaction CD95/PLCγ1 compared to CD95/FADD: particularly specific
[3]
  effect on the CD95/FADD interaction: without affecting the CD95/FADD interaction
